Source: publication PMC8298100
These are yes or no findings as the source states them, for the method shown. In cells and extracts the contact can be indirect. These calls come from enrichment with a bait or labelling near it, and not all partners need be listed. For some assays here: A no says only that the protein was not detected with the bait. For some assays here: Where a sequence is shown, tags or fusion partners need not be part of it.

By UniProt entry, the sequences of proteins in these tests, tags left out. Where a name states a change or a piece, a line headed by the entry shows the natural chain unless it says otherwise.
UniProt P05556: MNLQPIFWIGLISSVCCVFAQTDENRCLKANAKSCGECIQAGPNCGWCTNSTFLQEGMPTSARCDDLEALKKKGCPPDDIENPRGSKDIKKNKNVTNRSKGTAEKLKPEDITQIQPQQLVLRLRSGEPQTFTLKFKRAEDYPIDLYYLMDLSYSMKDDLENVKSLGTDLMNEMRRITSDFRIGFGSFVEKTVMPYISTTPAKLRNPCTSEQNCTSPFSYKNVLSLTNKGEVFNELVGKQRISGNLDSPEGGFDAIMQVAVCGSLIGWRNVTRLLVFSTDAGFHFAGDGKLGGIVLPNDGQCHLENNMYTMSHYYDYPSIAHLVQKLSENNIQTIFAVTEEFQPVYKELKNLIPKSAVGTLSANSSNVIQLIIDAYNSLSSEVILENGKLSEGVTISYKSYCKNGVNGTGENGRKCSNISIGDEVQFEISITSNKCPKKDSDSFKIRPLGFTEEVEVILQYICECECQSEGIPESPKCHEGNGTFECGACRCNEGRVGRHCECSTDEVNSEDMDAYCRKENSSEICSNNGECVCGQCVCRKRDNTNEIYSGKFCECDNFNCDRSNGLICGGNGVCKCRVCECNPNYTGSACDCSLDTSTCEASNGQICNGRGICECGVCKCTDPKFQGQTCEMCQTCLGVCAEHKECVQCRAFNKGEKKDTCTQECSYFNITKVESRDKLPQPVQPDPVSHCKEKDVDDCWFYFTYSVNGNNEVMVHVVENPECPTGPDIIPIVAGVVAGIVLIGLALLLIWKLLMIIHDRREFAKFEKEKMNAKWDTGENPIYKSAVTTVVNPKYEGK

T1: HA-BioID2-TPD54 R159E (human) (UniProt O43399)
T1 sequence: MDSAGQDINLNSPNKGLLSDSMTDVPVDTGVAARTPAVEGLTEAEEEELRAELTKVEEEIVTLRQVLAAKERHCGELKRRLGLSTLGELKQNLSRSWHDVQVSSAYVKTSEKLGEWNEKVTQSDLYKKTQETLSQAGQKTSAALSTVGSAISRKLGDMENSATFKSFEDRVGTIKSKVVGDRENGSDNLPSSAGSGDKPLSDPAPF

B1: TPD52 (protein, UniProt P55327 1-224)
chain: MDCREMDLYEDYQSPFDFDAGVNKSYLYLSPSGNSSPPGSPTLQKFGLLRTDPVPEEGEDVAATISATETLSEEEQEELRRELAKVEEEIQTLSQVLAAKEKHLAEIKRKLGINSLQELKQNIAKGWQDVTATSAYKKTSETLSQAGQKASAAFSSVGSVITKKLEDVKNSPTFKSFEEKVENLKSKVGGTKPAGGDFGEVLNSAANASATTTEPLPEKTQESL
B2: TPD53 (protein, UniProt Q16890 1-204)
chain: MEAQAQGLLETEPLQGTDEDAVASADFSSMLSEEEKEELKAELVQLEDEITTLRQVLSAKERHLVEIKQKLGMNLMNELKQNFSKSWHDMQTTTAYKKTHETLSHAGQKATAAFSNVGTAISKKFGDMSYSIRHSISMPAMRNSPTFKSFEERVETTVTSLKTKVGGTNPNGGSFEEVLSSTAHASAQSLAGGSRRTKEEELQC

Legend:
[1] = target: T1, HA-BioID2-TPD54 R159E (human); test: proximity labelling; BioID2 fused to TPD54 WT or R159E in RPE1 cells, 50 µM biotin for 16 h; RIPA lysate, streptavidin beads, on-bead digestion, mass spectrometry
[2] = target: HA-BioID2-TPD54 WT (human) (UniProt O43399); test: as above
GFP-TPD54 (human) = GFP-TPD54 (human) (UniProt O43399); test: affinity purification with mass spectrometry; RPE-1 cells transiently expressing GFP or GFP-TPD54, lysed under nonstringent conditions (10 mM Tris-HCl pH 7.5, 150 mM NaCl, 0.5 mM EDTA, 0.5% NP-40); GFP-Trap beads 1 h; washes with 500 mM NaCl; mass spectrometry

Row | Molecule | binding [1] | binding [2] | binding (GFP-TPD54 (human))
1 | integrin α5 (human (endogenous in RPE-1)) (receptor) | no binding |  | 
2 | integrin β1 (from UniProt P05556 21-798) (receptor) |  | binds | binds
3 | B1 |  |  | binds
4 | B2 |  |  | binds
